Experimental data: patent US5674872A, “Treatment of ovarian cancer” (SmithKline Beecham Corporation, priority 1995, dated 1997)
At least one compound was matched to its structure with a doubt left.

System: ovarian cancer
Experiment: Treatment of a human patient with ovarian cancer, tumor size regression evaluated by CAT scan
Type: in vivo
Details: one platinum-refractory patient, 1.5 mg/m^2/day i.v. for five consecutive days
Description: One human patient with ovarian cancer, who was refractory to two previous platinum-containing regimens (i.e., cisplatin-cyclophosphamide combination regimen and treatment with single agent carboplatin), received a course of therapy comprising intravenous administration of 1.5 mg of topotecan/m^2 of body surface area per day for five consecutive days. This course of therapy was repeated […] nine more times to date at twenty-one day intervals (from the date of initiation of therapy) for a total of ten treatments. Tumor size regression was evaluated by CAT (computerized axial tomography) scan. […] At least until the tenth treatment, this clinically significant response was sustained, i.e., a greater than fifty percent (50%) tumor size regression was obtained.

CC[C@@]1(O)C(=O)OCc2c1cc1n(c2=O)Cc2cc3c(CN(C)C)c(O)ccc3nc2-1 [Topotecan, (S)-10[(dimethylamino)methyl]-4-ethyl-4,9-dihydroxy-1 H-pyrano[3',4':6,7]indolizino[1,2-b]quinolone-3,14(4 H,12 H)-dione]
response (tumor size regression) (following four courses): An even greater response was observed | Tumor size regression (following two courses): Tumor size regression was observed
